Results are given in words; binding and its absence hold for the method and conditions named. Some results given as binding are weak or reduced against the parent protein; the word gives no strength. Sequences can lack the tags named with a protein.
T1: SMXL6 (yeast two-hybrid fusion) (Arabidopsis thaliana) (UniProt Q9LML2)
T1 sequence: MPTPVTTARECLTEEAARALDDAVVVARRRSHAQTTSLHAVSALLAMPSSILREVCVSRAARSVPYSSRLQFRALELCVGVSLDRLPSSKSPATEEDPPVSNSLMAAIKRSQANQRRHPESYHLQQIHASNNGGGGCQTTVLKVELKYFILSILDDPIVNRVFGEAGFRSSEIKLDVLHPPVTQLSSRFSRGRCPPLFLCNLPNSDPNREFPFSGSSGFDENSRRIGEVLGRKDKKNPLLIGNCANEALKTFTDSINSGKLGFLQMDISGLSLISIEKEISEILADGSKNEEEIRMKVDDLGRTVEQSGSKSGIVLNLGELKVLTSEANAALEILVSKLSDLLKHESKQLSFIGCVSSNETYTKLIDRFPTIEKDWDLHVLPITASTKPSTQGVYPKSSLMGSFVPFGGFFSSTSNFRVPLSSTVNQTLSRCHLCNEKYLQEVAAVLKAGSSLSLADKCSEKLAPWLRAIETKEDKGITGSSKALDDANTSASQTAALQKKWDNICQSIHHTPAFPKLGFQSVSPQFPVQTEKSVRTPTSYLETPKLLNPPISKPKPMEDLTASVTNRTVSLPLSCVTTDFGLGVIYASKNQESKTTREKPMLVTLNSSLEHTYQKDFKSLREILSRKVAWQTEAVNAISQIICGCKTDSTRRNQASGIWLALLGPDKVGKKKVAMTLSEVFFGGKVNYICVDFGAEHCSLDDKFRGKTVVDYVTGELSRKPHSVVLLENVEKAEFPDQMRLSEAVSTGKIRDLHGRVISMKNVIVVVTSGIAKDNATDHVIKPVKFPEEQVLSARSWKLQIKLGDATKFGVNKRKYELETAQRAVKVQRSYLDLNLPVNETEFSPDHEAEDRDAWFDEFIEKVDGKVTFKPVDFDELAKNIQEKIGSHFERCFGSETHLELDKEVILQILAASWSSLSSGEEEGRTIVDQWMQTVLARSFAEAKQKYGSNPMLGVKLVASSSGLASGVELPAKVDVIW

T2: SPL15 (yeast two-hybrid fusion) (Arabidopsis thaliana) (UniProt Q9M2Q6)
T2 sequence: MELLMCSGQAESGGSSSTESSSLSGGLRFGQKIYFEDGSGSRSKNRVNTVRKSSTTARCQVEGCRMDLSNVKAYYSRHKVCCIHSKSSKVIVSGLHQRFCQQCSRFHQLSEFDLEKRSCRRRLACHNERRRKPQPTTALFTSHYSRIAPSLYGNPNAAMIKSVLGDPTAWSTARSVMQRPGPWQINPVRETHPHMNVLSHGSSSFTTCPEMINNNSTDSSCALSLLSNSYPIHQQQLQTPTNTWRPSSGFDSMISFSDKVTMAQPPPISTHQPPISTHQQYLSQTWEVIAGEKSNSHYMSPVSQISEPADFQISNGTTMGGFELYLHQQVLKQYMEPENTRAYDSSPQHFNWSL

T3: SMXL7 (yeast two-hybrid fusion) (Arabidopsis thaliana) (UniProt O80875)
T3 sequence: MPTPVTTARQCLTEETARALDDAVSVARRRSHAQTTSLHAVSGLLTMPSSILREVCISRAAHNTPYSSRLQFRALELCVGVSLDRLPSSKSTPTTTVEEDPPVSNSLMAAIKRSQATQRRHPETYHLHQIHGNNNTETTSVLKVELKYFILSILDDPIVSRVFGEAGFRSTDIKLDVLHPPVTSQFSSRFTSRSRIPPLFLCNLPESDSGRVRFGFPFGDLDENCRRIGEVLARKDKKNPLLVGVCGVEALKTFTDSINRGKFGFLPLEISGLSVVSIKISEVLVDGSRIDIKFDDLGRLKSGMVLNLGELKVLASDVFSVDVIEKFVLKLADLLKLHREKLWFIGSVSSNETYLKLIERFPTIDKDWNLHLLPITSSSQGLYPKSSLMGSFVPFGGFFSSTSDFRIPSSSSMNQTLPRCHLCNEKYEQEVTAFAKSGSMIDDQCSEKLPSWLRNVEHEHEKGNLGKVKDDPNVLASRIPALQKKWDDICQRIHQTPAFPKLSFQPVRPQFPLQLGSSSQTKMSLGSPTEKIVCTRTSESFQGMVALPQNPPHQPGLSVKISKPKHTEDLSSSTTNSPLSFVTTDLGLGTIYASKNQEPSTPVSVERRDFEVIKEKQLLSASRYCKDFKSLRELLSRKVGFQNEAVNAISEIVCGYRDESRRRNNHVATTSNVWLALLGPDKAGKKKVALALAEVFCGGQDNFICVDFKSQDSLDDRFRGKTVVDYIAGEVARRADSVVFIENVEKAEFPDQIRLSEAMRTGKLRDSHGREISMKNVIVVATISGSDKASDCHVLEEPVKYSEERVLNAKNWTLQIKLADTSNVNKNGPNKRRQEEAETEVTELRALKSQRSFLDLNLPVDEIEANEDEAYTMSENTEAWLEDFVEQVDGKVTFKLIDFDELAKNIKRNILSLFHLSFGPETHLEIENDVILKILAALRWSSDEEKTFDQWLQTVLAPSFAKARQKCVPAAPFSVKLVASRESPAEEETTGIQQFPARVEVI

B1: FHY3 (yeast two-hybrid fusion) (protein, UniProt Q9LIE5 1-839)
chain: MDIDLRLHSGDLCKGDDEDRGLDNVLHNEEDMDIGKIEDVSVEVNTDDSVGMGVPTGELVEYTEGMNLEPLNGMEFESHGEAYSFYQEYSRAMGFNTAIQNSRRSKTTREFIDAKFACSRYGTKREYDKSFNRPRARQSKQDPENMAGRRTCAKTDCKASMHVKRRPDGKWVIHSFVREHNHELLPAQAVSEQTRKIYAAMAKQFAEYKTVISLKSDSKSSFEKGRTLSVETGDFKILLDFLSRMQSLNSNFFYAVDLGDDQRVKNVFWVDAKSRHNYGSFCDVVSLDTTYVRNKYKMPLAIFVGVNQHYQYMVLGCALISDESAATYSWLMETWLRAIGGQAPKVLITELDVVMNSIVPEIFPNTRHCLFLWHVLMKVSENLGQVVKQHDNFMPKFEKCIYKSGKDEDFARKWYKNLARFGLKDDQWMISLYEDRKKWAPTYMTDVLLAGMSTSQRADSINAFFDKYMHKKTSVQEFVKVYDTVLQDRCEEEAKADSEMWNKQPAMKSPSPFEKSVSEVYTPAVFKKFQIEVLGAIACSPREENRDATCSTFRVQDFENNQDFMVTWNQTKAEVSCICRLFEYKGYLCRHTLNVLQCCHLSSIPSQYILKRWTKDAKSRHFSGEPQQLQTRLLRYNDLCERALKLNEEASLSQESYNIAFLAIEGAIGNCAGINTSGRSLPDVVTSPTQGLISVEEDNHSRSAGKTSKKKNPTKKRKVNPEQDVMPVAAPESLQQMDKLSPRTVGIESYYGTQQSVQGMVQLNLMGPTRDNFYGNQQTMQGLRQLNSIAPSYDSYYGPQQGIHGQGVDFFRPANFSYDIRDDPNVRTTQLHEDASRHS
B2: FAR1 (yeast two-hybrid fusion) (protein, UniProt Q9SWG3 1-827)
chain: MDLQENLVSDAGDDHMVDIVVEPHSNRDIGIVDEFNIGGDVGFSGDLDLEPRNGIDFDTHEAAYIFYQEYAKSMGFTTSIKNSRRSKKTKDFIDAKFACSRYGVTPESESSGSSSRRSTVKKTDCKASMHVKRRPDGKWIIHEFVKDHNHELLPALAYHFRIQRNVKLAEKNNIDILHAVSERTKKMYVEMSRQSGGYKNIGSLLQTDVSSQVDKGRYLALEEGDSQVLLEYFKRIKKENPKFFYAIDLNEDQRLRNLFWADAKSRDDYLSFNDVVSFDTTYVKFNDKLPLALFIGVNHHSQPMLLGCALVADESMETFVWLIKTWLRAMGGRAPKVILTDQDKFLMSAVSELLPNTRHCFALWHVLEKIPEYFSHVMKRHENFLLKFNKCIFRSWTDDEFDMRWWKMVSQFGLENDEWLLWLHEHRQKWVPTFMSDVFLAGMSTSQRSESVNSFFDKYIHKKITLKEFLRQYGVILQNRYEEESVADFDTCHKQPALKSPSPWEKQMATTYTHTIFKKFQVEVLGVVACHPRKEKEDENMATFRVQDCEKDDDFLVTWSKTKSELCCFCRMFEYKGFLCRHALMILQMCGFASIPPQYILKRWTKDAKSGVLAGEGADQIQTRVQRYNDLCSRATELSEEGCVSEENYNIALRTLVETLKNCVDMNNARNNITESNSQLNNGTHEEENQVMAGVKATKKKTVYRKRKGQQEASQMLESQQSLQPMETISSEAMDMNGYYGPQQNVQGLLNLMEPPHEGYYVDQRTIQGLGQLNSIAPAQDSFFTNQQAMSGMVGQIDFRPPPNFTYTLQEEHLSSAQLPGSSSRQL

Assays:
Experiment in all cases: two-hybrid; LexA/AD system in yeast strain EGY48 plus H18; SD/-Ura/-Trp/-His, then raffinose, galactose and X-gal for blue color development
[1] = target: T1, SMXL6 (yeast two-hybrid fusion) (Arabidopsis thaliana)
[2] = target: T2, SPL15 (yeast two-hybrid fusion) (Arabidopsis thaliana)
[3] = target: T3, SMXL7 (yeast two-hybrid fusion) (Arabidopsis thaliana)

Binder | binding [1] | binding [2] | binding [3]
B1 | no binding | binds | no binding
B2 | no binding | binds | no binding
